Results are given in words; binding and its absence hold for the method and conditions named. In cells and extracts the contact can be indirect. Here binding means that the protein was enriched with, or labelled near, the bait; the list need not be complete. For some of these results: No binding means not detected with the bait. Values belong to the binder of their own block, whether it stands above or below them.
Tests used:
Assay in all cases: proximity labelling; eleven TurboID fusion strains (ndt80, homozygous) and a no-TurboID control, ~24 h sporulation, two replicates; TCA extract, streptavidin-sepharose pull-down, trypsin, UPLC-MS/MS; targets = in both replicates and in neither control
[1] = target: T1, Mlh3-TurboID (S. cerevisiae) (UniProt Q12083)
T1 sequence: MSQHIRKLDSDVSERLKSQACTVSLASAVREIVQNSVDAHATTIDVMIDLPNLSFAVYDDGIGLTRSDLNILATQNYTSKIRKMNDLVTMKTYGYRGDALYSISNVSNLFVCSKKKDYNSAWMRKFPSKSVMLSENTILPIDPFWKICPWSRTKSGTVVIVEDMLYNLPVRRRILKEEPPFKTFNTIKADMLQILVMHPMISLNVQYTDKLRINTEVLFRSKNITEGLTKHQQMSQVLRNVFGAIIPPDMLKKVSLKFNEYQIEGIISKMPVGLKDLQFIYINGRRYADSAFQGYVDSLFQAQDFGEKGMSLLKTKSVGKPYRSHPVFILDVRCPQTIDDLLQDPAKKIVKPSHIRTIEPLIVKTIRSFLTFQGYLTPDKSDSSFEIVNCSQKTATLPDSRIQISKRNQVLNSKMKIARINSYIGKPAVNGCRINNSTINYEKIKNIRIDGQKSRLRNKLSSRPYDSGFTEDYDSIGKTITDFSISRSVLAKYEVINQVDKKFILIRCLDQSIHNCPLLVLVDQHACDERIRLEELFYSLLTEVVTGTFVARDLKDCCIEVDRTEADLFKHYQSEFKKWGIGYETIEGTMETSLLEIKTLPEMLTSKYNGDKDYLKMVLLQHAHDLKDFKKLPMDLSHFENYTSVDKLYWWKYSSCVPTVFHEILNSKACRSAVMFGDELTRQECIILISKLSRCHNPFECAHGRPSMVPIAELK

[2] = target: Zip4iTurboID (S. cerevisiae)
[3] = target: T2, Msh4-TurboID (S. cerevisiae) (UniProt P40965)
T2 sequence: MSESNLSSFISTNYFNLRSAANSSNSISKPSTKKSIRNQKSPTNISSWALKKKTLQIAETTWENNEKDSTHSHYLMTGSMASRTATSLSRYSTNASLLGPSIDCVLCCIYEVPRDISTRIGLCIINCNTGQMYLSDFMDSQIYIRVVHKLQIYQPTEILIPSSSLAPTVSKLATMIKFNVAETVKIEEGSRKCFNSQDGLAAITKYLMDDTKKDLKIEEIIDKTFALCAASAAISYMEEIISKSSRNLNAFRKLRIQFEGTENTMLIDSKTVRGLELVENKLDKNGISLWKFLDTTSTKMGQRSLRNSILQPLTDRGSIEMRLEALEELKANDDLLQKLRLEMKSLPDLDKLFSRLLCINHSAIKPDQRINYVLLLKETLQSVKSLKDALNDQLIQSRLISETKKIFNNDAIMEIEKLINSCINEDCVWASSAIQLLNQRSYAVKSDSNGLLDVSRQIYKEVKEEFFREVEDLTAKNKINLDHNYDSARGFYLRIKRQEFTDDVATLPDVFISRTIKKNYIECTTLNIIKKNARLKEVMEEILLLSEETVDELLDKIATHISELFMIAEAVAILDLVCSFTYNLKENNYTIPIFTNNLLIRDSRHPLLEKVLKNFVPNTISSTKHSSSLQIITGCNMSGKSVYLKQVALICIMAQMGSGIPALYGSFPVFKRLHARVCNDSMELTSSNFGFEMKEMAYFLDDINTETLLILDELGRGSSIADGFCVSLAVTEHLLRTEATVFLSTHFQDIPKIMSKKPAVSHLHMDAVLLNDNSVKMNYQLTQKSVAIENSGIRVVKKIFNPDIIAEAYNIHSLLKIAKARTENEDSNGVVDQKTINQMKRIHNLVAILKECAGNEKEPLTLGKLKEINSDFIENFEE

[4] = target: Zip4-TurboID (S. cerevisiae)
[5] = target: T3, Msh5-TurboID (S. cerevisiae) (UniProt Q12175)
T3 sequence: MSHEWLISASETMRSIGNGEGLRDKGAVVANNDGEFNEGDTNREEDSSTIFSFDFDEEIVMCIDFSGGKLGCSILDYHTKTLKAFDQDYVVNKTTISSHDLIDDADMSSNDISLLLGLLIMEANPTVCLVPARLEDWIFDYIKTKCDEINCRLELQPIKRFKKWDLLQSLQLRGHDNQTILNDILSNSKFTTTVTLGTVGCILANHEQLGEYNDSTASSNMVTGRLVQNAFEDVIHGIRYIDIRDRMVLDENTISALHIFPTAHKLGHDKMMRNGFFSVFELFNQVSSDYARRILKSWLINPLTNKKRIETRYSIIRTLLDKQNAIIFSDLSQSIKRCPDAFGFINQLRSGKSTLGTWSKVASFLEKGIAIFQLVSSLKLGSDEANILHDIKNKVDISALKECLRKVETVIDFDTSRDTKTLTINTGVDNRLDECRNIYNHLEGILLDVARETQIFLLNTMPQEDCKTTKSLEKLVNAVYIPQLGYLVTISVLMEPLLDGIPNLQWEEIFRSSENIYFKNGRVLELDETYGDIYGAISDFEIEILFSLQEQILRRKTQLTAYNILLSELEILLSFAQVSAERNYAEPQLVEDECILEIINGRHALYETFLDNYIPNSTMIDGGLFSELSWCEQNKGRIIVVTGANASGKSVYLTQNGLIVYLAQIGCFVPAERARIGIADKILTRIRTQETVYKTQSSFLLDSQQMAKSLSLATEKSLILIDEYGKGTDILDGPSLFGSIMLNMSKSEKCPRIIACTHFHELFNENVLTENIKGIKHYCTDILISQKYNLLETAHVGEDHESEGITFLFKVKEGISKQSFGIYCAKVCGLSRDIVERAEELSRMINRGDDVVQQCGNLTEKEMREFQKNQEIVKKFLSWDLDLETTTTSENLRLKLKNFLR

binding [1]: no binding
binding [2]: binds
binding [3]: binds
binding [4]: binds
binding [5]: binds
B1: Ecm11 (protein, UniProt Q04110 1-302)
chain: MTVIKTEPTTEVTLYSPPSKESLSKDDAHRKKQNNKPPSSINSRSGPNKHKLAAKAPEKKINNTDKQDLSAFLLNPSLIVKPSESKKKENIVAYNDTPGIKTEHTAFQPLTPISKKRALKEKAASEKCDSFDLSRDEKPYIQKKSKTLSSVTEINSSEYKLSLNGENTSSPAKEKSQEPIENPGSYQKTRNYLFEKPDPLDTCLQDYSSMLPSNVAEEDQEYFISVADSTLEEWTNKGQEIIDQQFQLYQEIIKKRIELSYKFKGIISVINDRADALEEQGQQLEGKIKKVKTLANEILNII

binding [1]: no binding
binding [2]: binds
binding [3]: binds
binding [4]: binds
binding [5]: binds
B2: Zip1 (protein, UniProt P31111 1-875)
chain: MSNFFRDSSMGFKPRPNIFAKLRVRDVDSDSSANTVVENSSNCLDVGSSIEGDDTFKKPHKTSTEQELITSMSLSQRNHGYSDDMEIGSPKKTTSTDQYNRILKNDVAAIENDTDEDFEITEVREVSEGVAKETKESHGDPNDSETTLKDSKMHEYTMTNGKAPLHTSINNSSTSSNDVLLEAFTNTQRICSNLKQELQKQQQDNAKLKVRLQSYASNSDKINEKVGKYKSCLETLQERIATLTSHKNNQETKLKDLRQNHQLYQRRISGFKTSIENLNKTINDLGKNKKEADAELMKKGKEIEYLKRELDDCSGQLSEEKIKNSSLIQEMGKNREEMIKSIENFFSEDKAHHLLQFNKFEERVHDLFEKKLQKHFDVAKDTLNVGLRNTTVELSSNTETMLKQQYEDIKENLEQKMSSSKDEMAKTINELSVTQKGLIMGVQEELLTSSGNIQTALVSEMNNTRQELLDDASQTAKNYASLENLVKAYKAEIVQSNEYEERIKHLESERSTLSSQKNQIISSLGTKEAQYEDLVKKLEAKNIEISQISGKEQSLTEKNENLSNELKKVQDQLEKLNNLNITTKSNYENKISSQNEIVKALVSENDTLKQRIQQLVEIKENEQKDHTTKLEAFQKNNEQLQKLNVEVVQLKAHELELEEQNRHLKNCLEKKETGVEESLSDVKTLKQQVIVLKSEKQDITAEKLELQDNLESLEEVTKNLQQKVQSQKRELEQKIKELEEIKNHKRNEPSKKGTQNFTKPSDSPKKNATTSNLFPNNSAAIHSPMKKCPKVDHISKSRINSSKETSKFNDEFDLSSSSNDDLELTNPSPIQIKPVRGKIKKGSNCMKPPISSRKKLLLVEDEDQSLKISKKRRRK
